The series concerns mSWI/SNF complexes. Description: mSWI/SNF complex purification with HA-tagged baits and mass spectrometry (peptide counts). Also noted: species or system human. Conditions: 293_HA-BRD7 bait purification, mass spectrometry; for Total: total peptide count per identified protein; for Unique: unique peptide count per identified protein.

B1: SLC33A1 (protein)
chain: MSPTISHKDSSRQRRPGNFSHSLDMKSGPLPPGGWDDSHLDSAGREGDREALLGDTGTGDFLKAPQSFRAELSSILLLLFLYVLQGIPLGLAGSIPLILQSKNVSYTDQAFFSFVFWPFSLKLLWAPLVDAVYVKNFGRRKSWLVPTQYILGLFMIYLSTQVDRLLGNTDDRTPDVIALTVAFFLFEFLAATQDIAVDGWALTMLSRENVGYASTCNSVGQTAGYFLGNVLFLALESADFCNKYLRFQPQPRGIVTLSDFLFFWGTVFLITTTLVALLKKENEVSVVKEETQGITDTYKLLFAIIKMPAVLTFCLLILTAKIGFSAADAVTGLKLVEEGVPKEHLALLAVPMVPLQIILPLIISKYTAGPQPLNTFYKAMPYRLLLGLEYALLVWWTPKVEHQGGFPIYYYIVVLLSYALHQVTVYSMYVSIMAFNAKVSDPLIGGTYMTLLNTVSNLGGNWPSTVALWLVDPLTVKECVGASNQNCRTPDAVELCKKLGGSCVTALDGYYVESIICVFIGFGWWFFLGPKFKKLQDEGSSSWKCKRNN
For the molecule B1, the Total was determined as 1 and the Unique was 1.

B2: MTX1 (protein, UniProt Q13505 1-466, looked up)
Metaxin-1: MLLGGPPRSPRSGTSPKGPWSSTGHVQFGKSPQTWPRRTRPRSPEPAAPSGVRGSTWTRRRDSPRRAGPTALSRYVGHLWMGRRPPSPEARGPVPRSSAASRARRSLASPGISPGPLTATIGGAVAGGGPRQGRAEAHKEVFPGQRVGKMAAPMELFCWSGGWGLPSVDLDSLAVLTYARFTGAPLKVHKISNPWQSPSGTLPALRTSHGEVISVPHKIITHLRKEKYNADYDLSARQGADTLAFMSLLEEKLLPVLVHTFWIDTKNYVEVTRKWYAEAMPFPLNFFLPGRMQRQYMERLQLLTGEHRPEDEEELEKELYREARECLTLLSQRLGSQKFFFGDAPASLDAFVFSYLALLLQAKLPSGKLQVHLRGLHNLCAYCTHILSLYFPWDGAEVPPQRQTPAGPETEEEPYRRRNQILSVLAGLAAMVGYALLSGIVSIQRATPARAPGTRTLGMAEEDEEE
Molecule B2 yielded a Total of 1 and a Unique of 1.

B3: RANGAP1 (protein, UniProt P46060 2-587, looked up)
Ran GTPase-activating protein …: ASEDIAKLAETLAKTQVAGGQLSFKGKSLKLNTAEDAKDVIKEIEDFDSLEALRLEGNTVGVEAARVIAKALEKKSELKRCHWSDMFTGRLRTEIPPALISLGEGLITAGAQLVELDLSDNAFGPDGVQGFEALLKSSACFTLQELKLNNCGMGIGGGKILAAALTECHRKSSAQGKPLALKVFVAGRNRLENDGATALAEAFRVIGTLEEVHMPQNGINHPGITALAQAFAVNPLLRVINLNDNTFTEKGAVAMAETLKTLRQVEVINFGDCLVRSKGAVAIADAIRGGLPKLKELNLSFCEIKRDAALAVAEAMADKAELEKLDLNGNTLGEEGCEQLQEVLEGFNMAKVLASLSDDEDEEEEEEGEEEEEEAEEEEEEDEEEEEEEEEEEEEEPQQRGQGEKSATPSRKILDPNTGEPAPVLSSPPPADVSTFLAFPSPEKLLRLGPKSSVLIAQQTDTSDPEKVVSAFLKVSSVFKDEATVRMAVQDAVDALMQKAFNSSSFNSNTFLTRLLVHMGLLKSEDKVKAIANLYGPLMALNHMVQQDYFPKALAPLLLAFVTKPNSALESCSFARHSLLQTLYKV
B3 had a Total of 1 and a Unique of 1.

(Values after patent US12729225B2, “Non-canonical SWI/SNF complex and uses thereof” (Dana-Farber Cancer Institute, Inc., priority 2018, dated 2026).)
